From PubChem BioAssay AID2685 (National Center for Advancing Translational Sciences (NCATS), 2010) come the findings set out here.

This experiment can be described thus: qHTS Assay for Lipid Storage Modulators in Drosophila S3 Cells.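 On cell number change: cells counted by Cell Tracker Red CMTPX staining in the red channel.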 To be noted: BODIPY lipid droplet fluorescence, 18-24 h; for cell number change: measured here: cell count max response, cells fed with added oleic acid. A digest of the protocol: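 Laser-scanning cytometry quantifies lipid droplet accumulation (500–530 nm total intensity; droplet/cell object ratio) in oleic acid-fed (400 uM added) Drosophila S3 cells treated with a concentration series. 20 uM Triacsin C defined 100% inhibition.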
On the technique in general: Quantitative high-throughput screening tests each substance at several concentrations.

Setting [1] is: measured here: lipid fluorescence (Fed channel) AC50, cells fed with added oleic acid.
[2] abbreviates: measured here: cell number channel AC50, cells fed with added oleic acid.

This is one part of the list. Further columns of the screen follow, without active or inactive calls. Compounds called inactive in the main read-out are mostly missing here. Words in brackets tell the shape of the fitted curve; partial curves, single points and poor fits give uncertain potencies.

In the case of `Cc1ccccc1NC(=O)C1=CC=CN2CCS(=O)(=O)N=C12`, the cell number change was 6.41%. Moreover, the AC50 (as a rule, the concentration giving half of the maximal activity seen) under setting [1] is 0.116 µM [falling, full curve, poor fit].

In the case of `c1coc(-c2nnc3sc(Cc4cccs4)nn23)c1`, the cell number change was found to be 1.8%. Besides, the AC50 under setting [2] is 0.651 µM [falling, single point]. Under setting [1], the half-maximal activity concentration (AC50) is 32.6 µM [rising, single point].

`c1ccc(-n2c(-c3ccncc3)nnc2-c2ccco2)cc1`: the cell number change was found to be 9.3%. In addition, the AC50 under setting [2] is 2.91 µM [rising, single point]. Also, under setting [1], the AC50 was 0.651 µM [rising, full curve, poor fit].

Consider `Cc1ccc(Cn2nnc3c(=O)[nH]c(C4CCCN(C(=O)c5ccco5)C4)nc32)cc1` (stereo not given), for which the cell number change is -1.68%.

`O=C(Nc1cscc1S(=O)(=O)c1ccc(Cl)cc1)c1ccccc1Cl`: the cell number change is -19.2%.

Consider `CC1CCCCN1C(=O)COC(=O)/C=C/c1ccc2ccccc2n1` (stereo not given), for which the cell number change was determined as 24.3%. Moreover, under setting [1], the AC50 is 25.9 µM [rising, single point].

Consider `CN(CCc1ccccn1)C(=S)Nc1cccc(S(=O)(=O)N(C)C)c1`, for which the cell number change stood at 5.13%. Further, the AC50 under setting [1] was 29.1 µM [falling, single point].

As to `Cc1c(O)c2c3c(cccc3c1O)C(=O)N(c1ccccc1)C2=O`, the cell number change is -43.9%. Also, the AC50 under setting [2] is 29.1 µM [falling, single point]. Further, under setting [1], the AC50 was 32.6 µM [falling, partial curve, poor fit].

As for `CCOc1c(Br)cc(C(=O)N2CCCN(C)CC2)cc1OC`, the cell number change is 7.04%. For the same compound, under setting [2], the half-maximal activity concentration (AC50) was 0.164 µM [rising, full curve, poor fit].

As for `COC(=O)c1ccc(NC(=O)C2CCCN(S(=O)(=O)c3cnc[nH]3)C2)cc1` (stereo not given), the cell number change was found to be 4.8%. The AC50 under setting [1] was 2.31 µM [rising, single point].

`O=C(Cc1ccccc1)Nc1ccc(NC(=O)c2cccs2)cc1`: the cell number change worked out at 19.6%. Further, the AC50 under setting [2] is 0.259 µM [rising, partial curve, poor fit].

Regarding `COCc1nc(-c2ccc(-c3ccc(C)cc3)nc2OC)no1`, the cell number change is -7.02%.

Regarding `O=C(CCCCN1CCCCC1)c1ccc2c(c1)Cc1ccccc1-2`, the cell number change came to 21.6%.

`Cc1ccc(C2CC(=O)NC(SCC(=O)Nc3nccs3)=C2C#N)cc1` (stereo not given): the cell number change came out at 115%. Moreover, the AC50 under setting [2] is 0.13 µM [rising, full curve, poor fit]. In addition, the AC50 under setting [1] was 0.103 µM [rising, full curve, poor fit].

`O=C(NCC1CCCO1)C1CCN(S(=O)(=O)N2CCCC2)CC1` (stereo not given): the cell number change was 85%. Further, under setting [2], the AC50 is 29.1 µM [rising, single point]. In addition, the half-maximal activity concentration (AC50) under setting [1] is 29.1 µM [rising, partial curve].

As for `O=C(NCCc1ccccc1)/C(=C\c1cccc([N+](=O)[O-])c1)NC(=O)c1ccco1`, the cell number change was 7.33%.

Regarding `Cc1ccc2c(c1)N(CC(=O)N1CCCCCC1)C(=O)CO2`, the cell number change turned out to be 3.51%.

On to `COc1ccc(NS(=O)(=O)c2cccc(C(=O)NCCCN3CCOCC3)c2)cc1`, for which the cell number change is 35%. The AC50 under setting [2] was 14.6 µM [rising, single point].

On to `CCOc1cc(S(=O)(=O)Nc2ccc(Cl)cn2)ccc1F`, for which the cell number change was -3.57%.

As to `Cc1cc(NC(=O)CSc2nnc(-c3ccncc3)n2Cc2ccccc2)n(-c2ccccc2)n1`, the cell number change was found to be 21.2%. Also, under setting [1], the AC50 is 6.51 µM [rising, full curve, poor fit].

As to `CC(C)Cc1nc2oc3c(NCc4cccnc4)ncnc3c2c2c1CCC2`, the cell number change turned out to be 30.5%. Also, under setting [2], the AC50 is 29.1 µM [rising, single point].

Turning to `CC(C)C(NC(=O)Cc1ccccc1)C(=O)N1CCN(c2cccc(Cl)c2)CC1` (stereo not given), the cell number change was -1.1%. Moreover, the AC50 under setting [1] was 29.1 µM [rising, single point].

In the case of `Cc1ccc(C(=O)COC(=O)c2nc3nccc(C)n3n2)c(C)c1`, the cell number change worked out at 23.9%. For the same compound, the AC50 under setting [1] is 0.00461 µM [rising, full curve, poor fit].

As to `CCCNC(=O)CCn1cc(-c2ccc(OC)cc2)nc1CCN`, the cell number change was -2.64%. Further, the AC50 under setting [1] is 29.1 µM [rising, single point].

In the case of `C/C=C/C=N/Nc1nc(C)cc(=O)[nH]1`, the cell number change was -17.2%. Under setting [1], the AC50 was 25.9 µM [falling, single point].

In the case of `N#CCC(=N)N1CCN(c2cccc(Cl)c2)CC1`, the AC50 under setting [2] is 5.8 µM [rising, single point].

Take `CC1(C)Cc2c(C#N)c(SCCC#N)nc(N3CCOCC3)c2CO1`: the cell number change was -4.93%. For the same compound, the AC50 under setting [1] is 29.1 µM [falling, single point].

For the compound `CCCc1cc(=O)oc2c3c(cc(OCC(=O)N[C@@H](CSC)C(=O)O)c12)OC(C)(C)CC3`, the cell number change turned out to be 43.7%. The AC50 under setting [2] was 13 µM [rising, partial curve, poor fit].

On to `O=C(O)CC1(c2ccccc2)C(=O)c2ccccc2C1=O`, for which the cell number change worked out at 40.1%. Further, the AC50 under setting [2] is 29.1 µM [rising, single point].

As for `CSc1nc(C)c(C(=O)C[n+]2ccc(C)cc2)cc1C#N`, the cell number change is -3.91%. The AC50 under setting [2] is 0.00517 µM [falling, full curve, poor fit]. Besides, under setting [1], the AC50 is 20.6 µM [falling, partial curve, poor fit].

`CCN(CC)S(=O)(=O)c1ccc(C(=O)NCc2ccc(C)cc2)cc1`: the cell number change was -28.2%. Besides, the AC50 under setting [1] was 20.6 µM [falling, single point].

As to `Cc1ccc(CNC(=O)CCS(=O)(=O)c2ccc3c(c2)CC(C)N3C(=O)C2CC2)cc1` (stereo not given), the cell number change is -14.4%. Under setting [1], the AC50 was 0.0082 µM [falling, full curve, poor fit].

Regarding `O=C(COC(=O)C1=COCCO1)Nc1ccc(F)cc1`, the cell number change was -1.61%.

On to `COc1ccc(Cl)cc1NC(=O)CCNC(=O)OCc1ccccc1`, for which the AC50 under setting [1] is 10.3 µM [falling, partial curve].

`COc1ccc(C(C)=O)cc1CSc1nnc(Nc2ccc(C)cc2)s1`: the cell number change was -12.2%. The AC50 under setting [2] was 4.61 µM [rising, single point].

Regarding `COc1cc(OC)c(NC(=O)c2c(-c3ccccc3)noc2C)cc1Cl`, the AC50 under setting [2] is 0.326 µM [rising, partial curve].

As to `CN(C)CCCNC(=O)CCC1CCCCC1`, the cell number change was -187%. Besides, the AC50 under setting [2] is 0.651 µM [falling, single point]. Moreover, the AC50 under setting [1] was 29.1 µM [falling, single point].

On to `Cc1c(C(=O)NCc2ccoc2)oc2ccc3c(c12)C(=O)CC(C)(C)O3`, for which the cell number change was -26.5%. The AC50 under setting [1] was 20.6 µM [falling, partial curve, poor fit].

Regarding `CCC(=O)Nc1ccc2c(c1)nc(CN1CCN(C(C)=O)CC1)n2C`, the cell number change is 9.19%.

In the case of `CCOC(=O)CSc1nnc(Cc2ccccc2)n1CC1CCCO1` (stereo not given), the cell number change was -3.1%. Further, the concentration at half-maximal activity (AC50) under setting [1] was 0.231 µM [falling, full curve, poor fit].
